From PMC7819943, “Rice protein-binding microarrays: a tool to detect cis-acting elements near promoter regions in rice”
Some of the results follow.

Target: T1, OsSMF1 (Oryza sativa, UniProt Q6ZLB0 1-436)
T1 sequence: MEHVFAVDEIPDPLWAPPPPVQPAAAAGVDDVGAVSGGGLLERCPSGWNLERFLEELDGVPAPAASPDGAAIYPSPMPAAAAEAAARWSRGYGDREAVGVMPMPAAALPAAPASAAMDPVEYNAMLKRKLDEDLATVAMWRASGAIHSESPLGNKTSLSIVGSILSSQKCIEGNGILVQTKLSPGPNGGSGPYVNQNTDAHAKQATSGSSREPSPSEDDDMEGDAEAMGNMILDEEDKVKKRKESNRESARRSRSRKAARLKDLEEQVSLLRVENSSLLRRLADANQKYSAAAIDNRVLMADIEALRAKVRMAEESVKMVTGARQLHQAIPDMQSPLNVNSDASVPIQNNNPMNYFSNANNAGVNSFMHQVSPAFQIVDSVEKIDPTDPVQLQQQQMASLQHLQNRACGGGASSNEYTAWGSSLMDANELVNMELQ
Experiment: protein-binding microarray (RPBM); PBS, 2% BSA, 51.3 ng/ul salmon testes DNA, 50 uM zinc acetate, 200 nM TF, 25 C, 1 h; high values mean tight binding
Settings: protein: recombinant; tags: N-terminal polyhistidine and DsRed monomer fusion (pET32a); chain copies: 2; label: CyDye5-dUTP incorporated in the synthesized complementary strand; 3' TTTTT single-stranded linker to array surface; dsDNA, one strand shown
How it was run: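 Using Ni–NTA, transcription factors fused N-terminally to polyhistidine and DsRed were purified after expression in E. coli BL21-CodonPlus. These were incubated at 200 nM with a blocked, double-stranded custom Agilent array for 1 h at 25 °C in a buffer containing 50 µM zinc acetate, and the array was washed. The binding signal is per-feature fluorescence intensity (arbitrary units) on an Axon 4000B scanner.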

Sequence	binding signal
GATCTAGGGAACCTCCCTTAACCAACGGCCGATGACACGACGGAGTCACCTAGTGCAG	4380 fluorescence intensity (a.u.)
CCTTAAATTTTCCTAAATCCTTACCTACCGTCATTCTCTCCGGAGTCACCTAGTGCAG	47400 fluorescence intensity (a.u.)
ACCAGGAGACATGGAGGTAAGTATCTATGTACCTCTGTGTCGGAGTCACCTAGTGCAG	28300 fluorescence intensity (a.u.)
GTGGACACGTACTACACCGTGGTCCTCGACTCCGTCAAGGCGGAGTCACCTAGTGCAG	4220 fluorescence intensity (a.u.)
AATTCCCTGATGGCTCCCTGAAATTCCTCTGTTACAATTTCGGAGTCACCTAGTGCAG	28800 fluorescence intensity (a.u.)
GACAATCCAGTTGTCAAGTACAGCTATGCCTTACCATCAGCGGAGTCACCTAGTGCAG	4420 fluorescence intensity (a.u.)
AGAGGGGACTGGGGAGGGGAGGGGCGGCGCTCGCTGGCTTCGGAGTCACCTAGTGCAG	8090 fluorescence intensity (a.u.)
AGGGTGCCGGAGCTGCTGCTGTCGGTGGTGCCATCCTCCTCGGAGTCACCTAGTGCAG	5480 fluorescence intensity (a.u.)
ATTCTTTTGTCAAAGTGGAATAATGGCATACCGTAGTATTCGGAGTCACCTAGTGCAG	3910 fluorescence intensity (a.u.)
CTTTCAGTTTGTAACCACCGGATGACGCACGGACGGCTCGCGGAGTCACCTAGTGCAG	4360 fluorescence intensity (a.u.)
GTGCTGCGTCCTCCAATGACTACGATTCAACGACGGCAACCGGAGTCACCTAGTGCAG	3240 fluorescence intensity (a.u.)
CGATGTACATGGACTTCACGATGCAGCCGGGGTCGCAGCTCGGAGTCACCTAGTGCAG	3460 fluorescence intensity (a.u.)
CCACGCTAAAATTGGAAGTTTGACTAAAATTAGAAGTTTACGGAGTCACCTAGTGCAG	60200 fluorescence intensity (a.u.)
TGCAGAATTCCACATCCCCGCTGTATACACCGAGATCAACCGGAGTCACCTAGTGCAG	4120 fluorescence intensity (a.u.)
TTTGGTCGTCAAACAGTGATGACTCTCCTGGCCGCTGTCTCGGAGTCACCTAGTGCAG	3630 fluorescence intensity (a.u.)
CACTTGCTTATCTCAATCAACCACGTCATCTCTAATTTTACGGAGTCACCTAGTGCAG	18000 fluorescence intensity (a.u.)
ACGCGAAAGAAGACTGACTCAGATGGAGAACAACGTTTTGCGGAGTCACCTAGTGCAG	4110 fluorescence intensity (a.u.)
ACGTGTGCTGACGTACGGGATGACAATTCCAACTTTGCCTCGGAGTCACCTAGTGCAG	10700 fluorescence intensity (a.u.)
CACCGACACCGACCCGCCCAAATTAACGTGGCAAACTCCACGGAGTCACCTAGTGCAG	4670 fluorescence intensity (a.u.)
GTGGTAGAGGCGGCGGGGCGGGAGGTCGAACCGGAGCTGACGGAGTCACCTAGTGCAG	3140 fluorescence intensity (a.u.)
ACGCTGTCACAAGGCACACGTATGCAGAGCCCGAGCGCGACGGAGTCACCTAGTGCAG	5340 fluorescence intensity (a.u.)

Sequence	binding signal
ATTTTCCTAGGTGGATTGTACCATGATGCGCCACCTGGGACGGAGTCACCTAGTGCAG	3880 fluorescence intensity (a.u.)
TTCGAGCAACTCTACCTGGATCCAGACCAACCCCAGTAGACGGAGTCACCTAGTGCAG	50400 fluorescence intensity (a.u.)
CCACAACCCACCACCACGTCTAGGGTTCCGCCGCTCCTCCCGGAGTCACCTAGTGCAG	3160 fluorescence intensity (a.u.)
CATATATTGGTGTTGTGTGTGGGTGGGTGGGGCGGTGCTTCGGAGTCACCTAGTGCAG	7020 fluorescence intensity (a.u.)
ATTTGCTACCTATAATCTATAACATGTGGTCACTATGCGTCGGAGTCACCTAGTGCAG	3420 fluorescence intensity (a.u.)
GCGCCTGGCCAGCCAGAGCACCATGTCTGGTTTTGTATCCCGGAGTCACCTAGTGCAG	3310 fluorescence intensity (a.u.)
ACCACCCACCGGTTTCGGTTTCGCCCACCATTGGAGGCGACGGAGTCACCTAGTGCAG	3190 fluorescence intensity (a.u.)
TACAAACATTTCGCTTCCCACCGAGCCAAAATTTCGTCAGCGGAGTCACCTAGTGCAG	3670 fluorescence intensity (a.u.)
GACATGAGTCGACGCCTCCGACGTGGTGGAGAGTTGAGCGCGGAGTCACCTAGTGCAG	4520 fluorescence intensity (a.u.)
TTCCAGTCACGCCTTCTCCGTCCACGTTGCCATTACTTCACGGAGTCACCTAGTGCAG	5030 fluorescence intensity (a.u.)
GTTCTATTCTAAACCACAATTGAAGCTGACGAATTAAGTTCGGAGTCACCTAGTGCAG	3360 fluorescence intensity (a.u.)
GCGGGCGGAGGAGCTCGGGCGTGGGCGGGGAGGGCGGATCCGGAGTCACCTAGTGCAG	4310 fluorescence intensity (a.u.)
CCGCACATGTCAAATTCTAATTGGGTAAGGATGTCACACCCGGAGTCACCTAGTGCAG	3540 fluorescence intensity (a.u.)
AAGTTGGCATATGGGCCCCACATGCTGACCCAGTCGGTTGCGGAGTCACCTAGTGCAG	3150 fluorescence intensity (a.u.)
CTAGTGACACCAATTTGTAGTGTGTCATCTGCGGCCTAATCGGAGTCACCTAGTGCAG	4540 fluorescence intensity (a.u.)
AAAAGAGAAAATATCATTTGGTGAAATGGTGACGAGTTCCCGGAGTCACCTAGTGCAG	3290 fluorescence intensity (a.u.)
GTCATAGACGCGTGTGGACCCCACGTGTCATTGACATATGCGGAGTCACCTAGTGCAG	12300 fluorescence intensity (a.u.)
GCGGAGGAGGCAAGGAGATCAGGCGGCAGAGGAAAGGGGCCGGAGTCACCTAGTGCAG	3280 fluorescence intensity (a.u.)
GTGTGAGGTTCATGCTGGGCGGTGACGCGACGGCGGAGACCGGAGTCACCTAGTGCAG	6730 fluorescence intensity (a.u.)
CTCTTCTACAAATTGGACTTTGGTTATTTAGCTGGAAACTCGGAGTCACCTAGTGCAG	3920 fluorescence intensity (a.u.)
CAACCCCTGCCACCCAACACGTCTCCCTCTCCTTCCCTCTCGGAGTCACCTAGTGCAG	3510 fluorescence intensity (a.u.)

Sequence	binding signal
CCAATTATACTTGCCAATCTGCCGTCACCTCACCTGTTCTCGGAGTCACCTAGTGCAG	4950 fluorescence intensity (a.u.)
CTCGCTATCTGTCCCGGCTGGGTTGGTGACTCACCATCTTCGGAGTCACCTAGTGCAG	19800 fluorescence intensity (a.u.)
TCTTTCCCCTGCTGAGCGCGACTTCTTAATCATGACGGTGCGGAGTCACCTAGTGCAG	4030 fluorescence intensity (a.u.)
AAGTTAACTAATTATACAGATTGCGTGTAAATTGTGAGACCGGAGTCACCTAGTGCAG	3750 fluorescence intensity (a.u.)
TGACTTATATTGTGAAACGGAGGAAGTAGCTGATTGGCGTCGGAGTCACCTAGTGCAG	3170 fluorescence intensity (a.u.)
CCGTTATCTCTCCCGTGATGCGGCGTGGGGCCCACCACCACGGAGTCACCTAGTGCAG	4410 fluorescence intensity (a.u.)
CGAAGTCCAGGCAGGCGGCTCGCAGGAGCAGCTCAGCAGCCGGAGTCACCTAGTGCAG	5240 fluorescence intensity (a.u.)
TAAGGCAAAAGCCAAAATTCAAATATAGTTAAAATTAAAGCGGAGTCACCTAGTGCAG	7150 fluorescence intensity (a.u.)
TTGGAGGGATTTGGTTGAGGAATATGTATGACATGTGGTCCGGAGTCACCTAGTGCAG	3430 fluorescence intensity (a.u.)
CGGCTAGGGACGGGGACGACGCCGGAGTGGGTGGGGAAGGCGGAGTCACCTAGTGCAG	3200 fluorescence intensity (a.u.)
TTCAAACTATATGTGTATTTACATACTTAAATCTTTTATTCGGAGTCACCTAGTGCAG	27100 fluorescence intensity (a.u.)
TCTCGATGGATGACTCGATCGATCGTCATCGTTGGCTGCCCGGAGTCACCTAGTGCAG	6630 fluorescence intensity (a.u.)
ATGGGCACGTTTACTTCCTCGGCCAAATAGGAATGGTGTGCGGAGTCACCTAGTGCAG	3160 fluorescence intensity (a.u.)
CCTCTTGCCATTAAACAATCCGATTCCACGCAAGCAGCCCCGGAGTCACCTAGTGCAG	12500 fluorescence intensity (a.u.)
CTATCTTTCTCAATCTATCCTATTCGATTCTCGTCATCGGCGGAGTCACCTAGTGCAG	4220 fluorescence intensity (a.u.)
AGCCTCCAAATCAACCCAGCTGTTCCAACACACACATGAACGGAGTCACCTAGTGCAG	3270 fluorescence intensity (a.u.)
TTATCCAAGATGCTTTGCACACGTCACATGAAACCCACTCCGGAGTCACCTAGTGCAG	12100 fluorescence intensity (a.u.)
CTGCATCGCACCACGCCCGCATGGTCCCACCACCCGACCGCGGAGTCACCTAGTGCAG	29700 fluorescence intensity (a.u.)
CGTGCGGCGGATCGTGGTGGACGCGAGCGGCGGCGGCGACCGGAGTCACCTAGTGCAG	3440 fluorescence intensity (a.u.)
AGCAAGGTTCCACACGCTGTCACTGCCGTGTGGGCCATCCCGGAGTCACCTAGTGCAG	4340 fluorescence intensity (a.u.)
TGGGAGCGAGGGAGGACCTCTCCGGGAGTAGGAGTAGATGCGGAGTCACCTAGTGCAG	4120 fluorescence intensity (a.u.)

Sequence	binding signal
TGCTCACCTAACCCACACACGTGGCGCCAAAACCACAGGGCGGAGTCACCTAGTGCAG	9200 fluorescence intensity (a.u.)
ATGCTGCCATGGTTCCAGCTCAATAGCTCATCACCATTGCCGGAGTCACCTAGTGCAG	3300 fluorescence intensity (a.u.)
TCCTCCGCTAACTAGTCGTGCTCGGTGACGTCGCCGACACCGGAGTCACCTAGTGCAG	3940 fluorescence intensity (a.u.)
GCGGGCTGTACACGACGGTGATCGTCTCCTTCCTCACCGGCGGAGTCACCTAGTGCAG	3690 fluorescence intensity (a.u.)
TTCTGTGGTGACGTGGACATATCTGGAACCTACGTTTTGCCGGAGTCACCTAGTGCAG	20900 fluorescence intensity (a.u.)
TATTAAATTGGCTATAGGTGATTTGGAGCTAATAGTTAGCCGGAGTCACCTAGTGCAG	3210 fluorescence intensity (a.u.)
TCTGGGCTGAGGCCGCCGTGAGTCAAATCGACGGAAACCCCGGAGTCACCTAGTGCAG	4890 fluorescence intensity (a.u.)
ACACACACCCGGAGAGCGAGCGAGCGCGTGCGCACCGCACCGGAGTCACCTAGTGCAG	3310 fluorescence intensity (a.u.)
AGTGTTTCATCTGACATTGATAAGCAGGAGCCAGAGCATGCGGAGTCACCTAGTGCAG	3910 fluorescence intensity (a.u.)
GCCCCGCCATTGGCGCCTCCATTGCCACGCTGCCACCATCCGGAGTCACCTAGTGCAG	4990 fluorescence intensity (a.u.)
CTTTCCATTGGTTATGACTTACTGACTCACACTGCCAAACCGGAGTCACCTAGTGCAG	4600 fluorescence intensity (a.u.)
CAAGGCCAATGCAGACACGCGTACGTTTCACATCACAAGCCGGAGTCACCTAGTGCAG	3730 fluorescence intensity (a.u.)
GGGGTGTTAGTTAATTGCATGTATCCGTACGTGACTTGTACGGAGTCACCTAGTGCAG	4360 fluorescence intensity (a.u.)
CTGTTCTAGATAGATAAAGATAAAGATTAAATACAGGTACCGGAGTCACCTAGTGCAG	19500 fluorescence intensity (a.u.)
GGAGGATTCTTGTCATGGCTCCAAATGTCTGGTAGCATGGCGGAGTCACCTAGTGCAG	4010 fluorescence intensity (a.u.)
TCCAACGATGTCACCCTAGCAAAAGGGGCCTGGTAGGGTTCGGAGTCACCTAGTGCAG	3480 fluorescence intensity (a.u.)
TGTATCTGCTCAGCCCATCTCAGAAATATACTGGGGCCGACGGAGTCACCTAGTGCAG	22300 fluorescence intensity (a.u.)
GAAGCTTCTGGGCCACGCCGCCACAAAAGCCGAAGCGGAACGGAGTCACCTAGTGCAG	3960 fluorescence intensity (a.u.)
CGACGATGGAGGAGGTGGAGCGGCGACGGCGGTGGCGGAGCGGAGTCACCTAGTGCAG	8840 fluorescence intensity (a.u.)
CCACCCAGCTCCACTCCCAGTTTTGGTGGAGCTGAAACTGCGGAGTCACCTAGTGCAG	3330 fluorescence intensity (a.u.)
TTCCTATCGTTACAATTGCTAGTGGTAGGCCATGACACCTCGGAGTCACCTAGTGCAG	3770 fluorescence intensity (a.u.)

In a second layout: results already given.

| Sequence | binding signal |
| --- | --- |
| AAAAGAGAAAATATCATTTGGTGAAATGGTGACGAGTTCCCGGAGTCACCTAGTGCAG | 3290 fluorescence intensity (a.u.) |
| TGACTTATATTGTGAAACGGAGGAAGTAGCTGATTGGCGTCGGAGTCACCTAGTGCAG | 3170 fluorescence intensity (a.u.) |
| ACACACACCCGGAGAGCGAGCGAGCGCGTGCGCACCGCACCGGAGTCACCTAGTGCAG | 3310 fluorescence intensity (a.u.) |
